PubChem BioAssay AID686943 | Drosophila RNAi Screening Center, 2013
Assay: 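Search across the genome for regulators of signalling from receptor tyrosine kinase to ERK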 (primary screen). Cell system: Drosophila S2R+ haemocyte-like cells expressing YFP-tagged ERK (Rolled). Reagents: long dsRNA against Drosophila genes. Conditions: insulin stimulation versus unstimulated cells; dose and duration not given. Measurement: 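Per-plate z-scores of phospho-ERK immunostaining normalised to YFP-tagged ERK, measured with and without insulin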. Scale: replicate 1, z-score of dpERK with insulin: higher = more active ERK per ERK-YFP after insulin.
The deposit covers about 23,000 reagents; shown is an unselected part of those with a known target gene and a result. 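Extra replicates exist only for a retested subset of genes; insulin dose and duration not given; both raised and lowered dpERK matter.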 Not all columns of the deposit are shown. No sequences are given here. The record does not give: the amount of reagent, the time to read-out.

no.	gene knocked down	DRSC id	replicate 1, z-score of dpERK with insulin
1	CngA (GeneID 36806)	DRSC06580	-1.11
2	CngA (GeneID 36806)	DRSC07362	0.15
3	Gr93b (GeneID 117472)	DRSC22063	0.05
4	CG9760 (GeneID 39388)	DRSC11101	0.75
5	mRpL36 (GeneID 59151)	DRSC10337	-0.03
6	Ypel (GeneID 31949)	DRSC17996	0.08
7	Pli (GeneID 42821)	DRSC16792	-0.07
8	vimar (GeneID 35609)	DRSC05026	0.86
9	CG32237 (GeneID 38584)	DRSC08312	0.19
10	CG32237 (GeneID 38584)	DRSC08315	0.47
11	CG32024 (GeneID 317828)	DRSC21883	0.55
12	CG32163 (GeneID 317891)	DRSC09442	0.62
13	CG32163 (GeneID 317891)	DRSC21888	-0.2
14	CG31974 (GeneID 33174)	DRSC00522	0.22
15	CG4572 (GeneID 42360)	DRSC15603	0.58
16	CG32985 (GeneID 326244)	DRSC02634	0.27
17	Nab2 (GeneID 42897)	DRSC14158	-0.08
18	Gyc32E (GeneID 34553)	DRSC01154	0.5
19	CG6891 (GeneID 32865)	DRSC20016	-0.08
20	CG34249 (retired record) (GeneID 5740397)	DRSC09431	0.05
21	His3.3B (GeneID 31848)	DRSC17773	-0.26
22	His3.3B (GeneID 31848)	DRSC18673	-1.54
23	Alg11 (GeneID 40402)	DRSC11647	-0.13
24	dgt3 (GeneID 37377)	DRSC04349	0.01
25	rux (GeneID 31535)	DRSC18829	0.24
26	brn (GeneID 31358)	DRSC18746	0.34
27	CG7724 (GeneID 39918)	DRSC10905	-0.3
28	Slimp (GeneID 318604)	DRSC13656	-0.48
29	Nup188 (GeneID 36397)	DRSC21830	-0.28
30	MAGE (GeneID 40860)	DRSC12504	0.79
31	Drsl5 (GeneID 38409)	DRSC08159	0.15
32	CG9297 (GeneID 41688)	DRSC16469	1.17
33	Ndg (GeneID 36089)	DRSC06223	-0.29
34	CG30383 (GeneID 246583)	DRSC05062	0.12
35	CG9372 (GeneID 40137)	DRSC11068	-1.47
36	Nrx-IV (GeneID 39387)	DRSC11238	0.16
37	Ccdc58 (GeneID 40159)	DRSC10218	0.38
38	CG4763 (GeneID 37771)	DRSC04009	-0.1
39	CG4763 (GeneID 37771)	DRSC04487	0.81
40	G9a (GeneID 30971)	DRSC18619	0.3
41	Glys (GeneID 41823)	DRSC16130	-0.3
42	Usp8 (GeneID 42509)	DRSC15876	0.04
43	hyx (GeneID 41086)	DRSC14462	2.65
44	wrd (GeneID 42169)	DRSC16337	0.84
45	wrd (GeneID 42169)	DRSC16344	0.05
46	CG9986 (GeneID 43386)	DRSC16586	0.12
47	rho-7 (GeneID 36281)	DRSC07304	-0.27
48	CG12769 (GeneID 35770)	DRSC06167	0.51
49	Adgf-A2 (GeneID 64879)	DRSC09507	0.41
50	lncRNA:CR32385 (GeneID 3772463)	DRSC22966	-0.24
51	CG7378 (GeneID 32888)	DRSC20041	-0.15
52	CG4098 (GeneID 39854)	DRSC10399	-0.07
53	CG8500 (GeneID 41203)	DRSC16434	-1.53
54	l(3)mbn (GeneID 38701)	DRSC08793	0.73
55	CG15909 (GeneID 35572)	DRSC04977	-0.22
56	Ugt307A1 (GeneID 33993)	DRSC02138	-0.16
57	SH3PX1 (GeneID 39136)	DRSC11139	-0.8

Sorted by “replicate 1, z-score of dpERK with insulin” (high to low): some entries from above.
gene knocked down	DRSC id	replicate 1, z-score of dpERK with insulin
vimar (GeneID 35609)	DRSC05026	0.86
CG32163 (GeneID 317891)	DRSC09442	0.62
CG32024 (GeneID 317828)	DRSC21883	0.55
CG32237 (GeneID 38584)	DRSC08315	0.47
CG32237 (GeneID 38584)	DRSC08312	0.19
Pli (GeneID 42821)	DRSC16792	-0.07
CG32163 (GeneID 317891)	DRSC21888	-0.2
